Patent publication US8053634B2, “Stabilization and blueing of anthocyanin pigments using gene encoding aromatic acyltransferase capable of transferring an aromatic acyl group to the 3′-position of anthocyanin” (Suntory Holdings Limited, priority 2004, dated 2011)

Assay: Flower color simulation: purified pigment in juice squeezed from rose petals (cv. Medeo)
Assay type: physicochemical
Settings: from L*a*b* value converted from transmission spectrum
Description: In order to simulate the flower color when the gene for gentian anthocyanin 5,3′-acyltransferase was introduced into roses and DEL 3G-5CafG-3′CafG was accumulated in rose petals, the color development of a purified pigment suspended in juice squeezed form rose petals (cv. Medeo) was measured. As for purified pigments, DEL 3G-5CafG-3′CafG, and as a comparative control, DEL 3G-5G, cyanidin 3,5-diglucoside (CYA 3G-5G), pelargonidin 3,5-diglucoside (PEL 3G-5G) and malvidin 3,5-diglucoside (MAL 3G-5G) were used. About 20 g of Medeo petals frozen at −80° C. for more than one hour were squeezed by a garlic squeezer for household use, and centrifuged at 1000 rpm for 1 minute to remove the debris of the petals, and the supernatant was prepared as the squeezed juice.
Twenty μl of 50 mM DMSO solution of purified pigment was added to 1 ml of the squeezed juice, and kept for 10 minutes, and the absorption and transmittance spectra at 380-780 nm were measured with a spectrophotometer UV-2500PC(SHIMADZU Corporation). The transmittance spectrum values were converted into CIE L*a*b* color system (JISZ8729). […] However, since the absorbance for 3G-5CafG-3′CafG was too high, it was diluted 4-fold prior to measurement.

O=C(/C=C/c1ccc(O)c(O)c1)OC[C@H]1O[C@@H](Oc2cc(-c3[o+]c4cc(O)cc(O[C@@H]5O[C@H](COC(=O)/C=C/c6ccc(O)c(O)c6)[C@@H](O)[C@H](O)[C@H]5O)c4cc3O[C@@H]3O[C@H](CO)[C@@H](O)[C@H](O)[C@H]3O)cc(O)c2O)[C@H](O)[C@@H](O)[C@@H]1O [DEL 3G-5CafG-3′CafG, gentiodelphin]
approximate color, Royal Horticultural Society color chart (RHSCC) number: 89A
